In patent US20030186363:

Legend:
[1] = system: T1, BsaI restriction endonuclease (recombinant, cell extract) L1M (Bacillus stearothermophilus 6-55); experiment: enzyme reaction in vitro; conditions: T7 DNA substrate; BsmAI-methylase premodified host; 0.7-1.4 x 10^6 with BsaIMA&B host; protein in an extract
T1 sequence: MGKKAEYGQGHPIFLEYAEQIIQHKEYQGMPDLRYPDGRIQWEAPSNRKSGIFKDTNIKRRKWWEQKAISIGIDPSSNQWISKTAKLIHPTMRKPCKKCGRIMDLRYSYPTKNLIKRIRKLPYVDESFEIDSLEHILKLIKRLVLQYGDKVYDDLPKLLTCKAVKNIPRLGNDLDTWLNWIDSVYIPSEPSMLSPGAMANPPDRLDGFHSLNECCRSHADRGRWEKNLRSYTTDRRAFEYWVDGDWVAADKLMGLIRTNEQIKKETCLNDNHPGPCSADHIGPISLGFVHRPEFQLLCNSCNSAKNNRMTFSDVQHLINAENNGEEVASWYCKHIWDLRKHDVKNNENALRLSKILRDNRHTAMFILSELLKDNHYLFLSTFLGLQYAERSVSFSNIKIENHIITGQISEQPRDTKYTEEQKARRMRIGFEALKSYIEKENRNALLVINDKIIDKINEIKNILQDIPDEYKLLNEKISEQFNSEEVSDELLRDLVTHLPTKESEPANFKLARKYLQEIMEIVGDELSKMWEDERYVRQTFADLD

[2] = system: T2, BsaI restriction endonuclease (recombinant) L1M (Bacillus stearothermophilus 6-55); experiment: enzyme reaction in vitro; conditions: purification fractions assayed on lambda DNA; 10^6 units purified in total; purified recombinant protein
T2 sequence: T1 sequence

[3] = system: T3, M.BsaIB (C5 methylase) (Bacillus stearothermophilus 6-55); experiment: activity in cells; conditions: plasmids carrying bsaIMB resistant to BsaI digestion; protein in cells; only the site is given
T3 sequence: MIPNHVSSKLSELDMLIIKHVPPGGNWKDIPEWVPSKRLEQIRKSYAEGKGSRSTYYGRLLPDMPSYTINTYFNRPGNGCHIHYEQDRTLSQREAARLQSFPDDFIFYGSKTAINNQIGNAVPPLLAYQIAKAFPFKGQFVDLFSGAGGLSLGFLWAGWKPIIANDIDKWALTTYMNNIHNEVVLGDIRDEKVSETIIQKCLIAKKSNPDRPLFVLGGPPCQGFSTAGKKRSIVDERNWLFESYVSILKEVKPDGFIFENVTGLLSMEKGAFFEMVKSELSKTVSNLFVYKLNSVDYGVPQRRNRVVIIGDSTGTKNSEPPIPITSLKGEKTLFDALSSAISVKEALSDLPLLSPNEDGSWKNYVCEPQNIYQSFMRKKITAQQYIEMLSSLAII

M.BsmAI (M1-M2 fusion) = molecular target: T4, M.BsmAI (M1-M2 fusion) (UniProt Q6UQ63); experiment: activity in cells; conditions: four of six clones resistant to BsmAI digestion; site overlaps BsaI site and cross-protects host; protein in cells; protein details: expressed from pBR322 in E. coli ER2566; only the motif is given
T4 sequence (looked up, limits assumed): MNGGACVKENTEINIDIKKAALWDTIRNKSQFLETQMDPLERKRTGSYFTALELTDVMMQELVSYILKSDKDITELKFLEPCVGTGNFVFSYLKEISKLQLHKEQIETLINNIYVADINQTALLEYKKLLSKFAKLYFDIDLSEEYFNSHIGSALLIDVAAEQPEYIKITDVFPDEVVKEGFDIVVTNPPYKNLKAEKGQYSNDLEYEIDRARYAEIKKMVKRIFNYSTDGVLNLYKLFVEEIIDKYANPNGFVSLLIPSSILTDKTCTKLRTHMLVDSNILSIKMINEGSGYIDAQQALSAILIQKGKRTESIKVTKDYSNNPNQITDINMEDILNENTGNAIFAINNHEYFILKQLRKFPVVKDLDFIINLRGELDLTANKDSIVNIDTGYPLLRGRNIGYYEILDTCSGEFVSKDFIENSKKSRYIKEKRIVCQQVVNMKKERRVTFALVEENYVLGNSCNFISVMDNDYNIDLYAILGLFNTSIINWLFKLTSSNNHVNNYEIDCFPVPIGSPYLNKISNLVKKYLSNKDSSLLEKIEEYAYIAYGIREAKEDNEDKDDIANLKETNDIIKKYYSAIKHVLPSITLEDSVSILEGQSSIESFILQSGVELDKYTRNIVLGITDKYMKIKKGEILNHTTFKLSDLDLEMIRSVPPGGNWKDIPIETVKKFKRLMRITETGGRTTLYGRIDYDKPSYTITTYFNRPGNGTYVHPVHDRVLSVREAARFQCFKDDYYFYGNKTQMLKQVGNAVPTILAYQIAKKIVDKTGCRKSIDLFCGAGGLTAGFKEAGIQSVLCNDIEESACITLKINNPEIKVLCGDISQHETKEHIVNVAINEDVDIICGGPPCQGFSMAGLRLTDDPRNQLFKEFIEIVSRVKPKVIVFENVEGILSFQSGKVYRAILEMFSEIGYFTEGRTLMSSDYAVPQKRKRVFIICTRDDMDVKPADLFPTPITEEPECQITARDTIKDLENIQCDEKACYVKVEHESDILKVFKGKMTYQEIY

Row | Sequence | activity on this sequence [1] | activity on this sequence [2] | activity on this sequence [3] | activity on this sequence (M.BsmAI (M1-M2 fusion))
1 | GGTCTC (double strand) [BsaI recognition site (in T7 or lambda DNA)] | active | active | active | –
2 | GTCTC (double strand) [BsmAI recognition site (in plasmid DNA)] | – | – | – | active

Protein sequences can lack the tags named with them. For some of these results: The exact form of at least one protein or probe is not confirmed.
